Laboratory results: publication doi:10.1101/538223
These are yes or no findings as the source states them, for the method shown. Binding seen in cells or lysates may run through a third protein. Some binding calls cover weakened binding; strength is not graded here. Tags and fused reporters may be left off the sequences shown.

Sequences of proteins named here, by UniProt entry; tags and fusion partners are left off.
UniProt Q14155: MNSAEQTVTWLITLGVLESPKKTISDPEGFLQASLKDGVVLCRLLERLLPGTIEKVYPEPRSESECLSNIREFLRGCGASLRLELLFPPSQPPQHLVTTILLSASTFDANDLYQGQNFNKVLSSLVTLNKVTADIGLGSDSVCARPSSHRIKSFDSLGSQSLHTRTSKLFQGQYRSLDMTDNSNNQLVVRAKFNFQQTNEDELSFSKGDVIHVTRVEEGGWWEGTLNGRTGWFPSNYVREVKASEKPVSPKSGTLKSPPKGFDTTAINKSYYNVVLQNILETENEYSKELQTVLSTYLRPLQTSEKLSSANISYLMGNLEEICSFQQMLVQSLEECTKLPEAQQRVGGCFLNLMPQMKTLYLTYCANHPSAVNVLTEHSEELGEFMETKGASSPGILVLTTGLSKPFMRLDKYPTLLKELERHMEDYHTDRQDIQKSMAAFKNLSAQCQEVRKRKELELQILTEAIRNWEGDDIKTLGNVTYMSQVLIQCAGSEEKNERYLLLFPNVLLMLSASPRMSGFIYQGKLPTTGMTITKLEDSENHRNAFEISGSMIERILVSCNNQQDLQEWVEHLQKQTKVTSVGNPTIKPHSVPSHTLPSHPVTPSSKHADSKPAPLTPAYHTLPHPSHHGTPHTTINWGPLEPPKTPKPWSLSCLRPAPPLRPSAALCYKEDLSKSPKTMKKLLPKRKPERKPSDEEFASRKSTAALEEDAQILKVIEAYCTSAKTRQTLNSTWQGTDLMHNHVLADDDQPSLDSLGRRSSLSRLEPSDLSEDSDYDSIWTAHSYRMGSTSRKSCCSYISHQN

Molecular target: T1, human GIT2-long/Flag (human) (UniProt Q14161)
T1 sequence: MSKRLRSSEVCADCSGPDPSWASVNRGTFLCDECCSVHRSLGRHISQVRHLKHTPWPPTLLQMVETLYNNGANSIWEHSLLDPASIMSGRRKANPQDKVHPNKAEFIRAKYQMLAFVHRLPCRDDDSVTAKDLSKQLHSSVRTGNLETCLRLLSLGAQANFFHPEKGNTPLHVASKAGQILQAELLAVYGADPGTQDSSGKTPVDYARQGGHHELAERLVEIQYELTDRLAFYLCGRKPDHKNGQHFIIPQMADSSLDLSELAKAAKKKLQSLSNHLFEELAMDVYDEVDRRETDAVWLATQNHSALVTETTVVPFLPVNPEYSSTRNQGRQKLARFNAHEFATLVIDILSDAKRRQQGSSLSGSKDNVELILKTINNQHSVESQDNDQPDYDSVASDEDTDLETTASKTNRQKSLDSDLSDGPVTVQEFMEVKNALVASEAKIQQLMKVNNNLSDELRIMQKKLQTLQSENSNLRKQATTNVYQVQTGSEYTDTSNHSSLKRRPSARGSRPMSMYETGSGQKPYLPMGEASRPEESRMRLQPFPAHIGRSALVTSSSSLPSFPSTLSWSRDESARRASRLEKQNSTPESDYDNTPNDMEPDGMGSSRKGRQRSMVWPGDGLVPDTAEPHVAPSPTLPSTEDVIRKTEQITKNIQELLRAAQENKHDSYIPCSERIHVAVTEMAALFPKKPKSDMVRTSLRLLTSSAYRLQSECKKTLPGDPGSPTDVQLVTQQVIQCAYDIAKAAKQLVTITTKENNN
Test: co-IP

**Q.** “β-PIX, endogenous (from UniProt Q14155 1-803)” was tested. Which binding did it give?
**A.** Its binding is “binds”.
